Assay results: publication PMC2980481

Biological target: SUMO E3 ligase mutant PIAS1 (CS) (MYC-tagged)
Test: co-IP; lysates of 293T cells co-expressing SnoN and PIAS1 (WT or CS); anti-MYC (9E10) IP of PIAS1, anti-SnoN blot; TNTE buffer (50 mM Tris-HCl pH 7.4, 150 mM NaCl, 1 mM EDTA) with 0.5% Triton X-100

B1: FLAG-tagged wild type SnoN (protein, UniProt P12757-1 1-684)
chain: MENLQTNFSLVQGSTKKLNGMGDDGSPPAKKMITDIHANGKTINKVPTVKKEHLDDYGEAPVETDGEHVKRTCTSVPETLHLNPSLKHTLAQFHLSSQSSLGGPAAFSARHSQESMSPTVFLPLPSPQVLPGPLLIPSDSSTELTQTVLEGESISCFQVGGEKRLCLPQVLNSVLREFTLQQINTVCDELYIYCSRCTSDQLHILKVLGILPFNAPSCGLITLTDAQRLCNALLRPRTFPQNGSVLPAKSSLAQLKETGSAFEVEHECLGKCQGLFAPQFYVQPDAPCIQCLECCGMFAPQTFVMHSHRSPDKRTCHWGFESAKWHCYLHVNQKYLGTPEEKKLKIILEEMKEKFSMRSGKRNQSKTDAPSGMELQSWYPVIKQEGDHVSQTHSFLHPSYYLYMCDKVVAPNVSLTSAVSQSKELTKTEASKSISRQSEKAHSSGKLQKTVSYPDVSLEEQEKMDLKTSRELCSRLDASISNNSTSKRKSESATCNLVRDINKVGIGLVAAASSPLLVKDVICEDDKGKIMEEVMRTYLKQQEKLNLILQKKQQLQMEVKMLSSSKSMKELTEEQQNLQKELESLQNEHAQRMEEFYVEQKDLEKKLEQIMKQKCTCDSNLEKDKEAEYAGQLAELRQRLDHAEADRQELQDELRQEREARQKLEMMIKELKLQILKSSKTAKE
- binding: binds

No constants are given. Whether binding was seen depends on the method and setting. In cells and extracts the contact can be indirect. Binding calls can cover weak binding; strength is not graded here. Sequences can lack the tags named with a protein.
